Experimental data reported in the supplement of paper PMC10849652.
Some of the results follow.

Sequences of proteins named here, by UniProt entry; tags and fusion partners are left off. A change or cut given only in a name is not applied to a line headed by its entry.
UniProt Q9H1B5: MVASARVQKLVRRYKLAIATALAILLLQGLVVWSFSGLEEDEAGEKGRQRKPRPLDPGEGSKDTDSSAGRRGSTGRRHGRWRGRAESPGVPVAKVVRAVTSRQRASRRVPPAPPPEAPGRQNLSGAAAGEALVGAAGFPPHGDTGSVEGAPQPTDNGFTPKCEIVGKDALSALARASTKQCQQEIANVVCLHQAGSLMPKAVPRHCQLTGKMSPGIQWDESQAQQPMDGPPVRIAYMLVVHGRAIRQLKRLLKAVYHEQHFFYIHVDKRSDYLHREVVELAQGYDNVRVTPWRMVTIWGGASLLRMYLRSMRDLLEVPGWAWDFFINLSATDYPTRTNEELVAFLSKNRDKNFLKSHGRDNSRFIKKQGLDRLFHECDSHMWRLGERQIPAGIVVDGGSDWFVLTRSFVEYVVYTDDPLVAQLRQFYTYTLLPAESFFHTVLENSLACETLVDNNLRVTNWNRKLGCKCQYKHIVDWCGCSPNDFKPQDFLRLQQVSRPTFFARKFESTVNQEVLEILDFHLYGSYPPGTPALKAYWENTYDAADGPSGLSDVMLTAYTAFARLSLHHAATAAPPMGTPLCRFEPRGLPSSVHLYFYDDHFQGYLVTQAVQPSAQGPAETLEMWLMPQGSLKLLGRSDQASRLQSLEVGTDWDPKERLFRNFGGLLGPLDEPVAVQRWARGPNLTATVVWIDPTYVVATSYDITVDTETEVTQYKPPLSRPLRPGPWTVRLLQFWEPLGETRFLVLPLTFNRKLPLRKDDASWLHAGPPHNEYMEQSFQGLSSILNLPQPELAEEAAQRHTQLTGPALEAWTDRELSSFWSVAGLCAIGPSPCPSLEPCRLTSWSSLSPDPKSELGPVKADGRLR
UniProt O60293: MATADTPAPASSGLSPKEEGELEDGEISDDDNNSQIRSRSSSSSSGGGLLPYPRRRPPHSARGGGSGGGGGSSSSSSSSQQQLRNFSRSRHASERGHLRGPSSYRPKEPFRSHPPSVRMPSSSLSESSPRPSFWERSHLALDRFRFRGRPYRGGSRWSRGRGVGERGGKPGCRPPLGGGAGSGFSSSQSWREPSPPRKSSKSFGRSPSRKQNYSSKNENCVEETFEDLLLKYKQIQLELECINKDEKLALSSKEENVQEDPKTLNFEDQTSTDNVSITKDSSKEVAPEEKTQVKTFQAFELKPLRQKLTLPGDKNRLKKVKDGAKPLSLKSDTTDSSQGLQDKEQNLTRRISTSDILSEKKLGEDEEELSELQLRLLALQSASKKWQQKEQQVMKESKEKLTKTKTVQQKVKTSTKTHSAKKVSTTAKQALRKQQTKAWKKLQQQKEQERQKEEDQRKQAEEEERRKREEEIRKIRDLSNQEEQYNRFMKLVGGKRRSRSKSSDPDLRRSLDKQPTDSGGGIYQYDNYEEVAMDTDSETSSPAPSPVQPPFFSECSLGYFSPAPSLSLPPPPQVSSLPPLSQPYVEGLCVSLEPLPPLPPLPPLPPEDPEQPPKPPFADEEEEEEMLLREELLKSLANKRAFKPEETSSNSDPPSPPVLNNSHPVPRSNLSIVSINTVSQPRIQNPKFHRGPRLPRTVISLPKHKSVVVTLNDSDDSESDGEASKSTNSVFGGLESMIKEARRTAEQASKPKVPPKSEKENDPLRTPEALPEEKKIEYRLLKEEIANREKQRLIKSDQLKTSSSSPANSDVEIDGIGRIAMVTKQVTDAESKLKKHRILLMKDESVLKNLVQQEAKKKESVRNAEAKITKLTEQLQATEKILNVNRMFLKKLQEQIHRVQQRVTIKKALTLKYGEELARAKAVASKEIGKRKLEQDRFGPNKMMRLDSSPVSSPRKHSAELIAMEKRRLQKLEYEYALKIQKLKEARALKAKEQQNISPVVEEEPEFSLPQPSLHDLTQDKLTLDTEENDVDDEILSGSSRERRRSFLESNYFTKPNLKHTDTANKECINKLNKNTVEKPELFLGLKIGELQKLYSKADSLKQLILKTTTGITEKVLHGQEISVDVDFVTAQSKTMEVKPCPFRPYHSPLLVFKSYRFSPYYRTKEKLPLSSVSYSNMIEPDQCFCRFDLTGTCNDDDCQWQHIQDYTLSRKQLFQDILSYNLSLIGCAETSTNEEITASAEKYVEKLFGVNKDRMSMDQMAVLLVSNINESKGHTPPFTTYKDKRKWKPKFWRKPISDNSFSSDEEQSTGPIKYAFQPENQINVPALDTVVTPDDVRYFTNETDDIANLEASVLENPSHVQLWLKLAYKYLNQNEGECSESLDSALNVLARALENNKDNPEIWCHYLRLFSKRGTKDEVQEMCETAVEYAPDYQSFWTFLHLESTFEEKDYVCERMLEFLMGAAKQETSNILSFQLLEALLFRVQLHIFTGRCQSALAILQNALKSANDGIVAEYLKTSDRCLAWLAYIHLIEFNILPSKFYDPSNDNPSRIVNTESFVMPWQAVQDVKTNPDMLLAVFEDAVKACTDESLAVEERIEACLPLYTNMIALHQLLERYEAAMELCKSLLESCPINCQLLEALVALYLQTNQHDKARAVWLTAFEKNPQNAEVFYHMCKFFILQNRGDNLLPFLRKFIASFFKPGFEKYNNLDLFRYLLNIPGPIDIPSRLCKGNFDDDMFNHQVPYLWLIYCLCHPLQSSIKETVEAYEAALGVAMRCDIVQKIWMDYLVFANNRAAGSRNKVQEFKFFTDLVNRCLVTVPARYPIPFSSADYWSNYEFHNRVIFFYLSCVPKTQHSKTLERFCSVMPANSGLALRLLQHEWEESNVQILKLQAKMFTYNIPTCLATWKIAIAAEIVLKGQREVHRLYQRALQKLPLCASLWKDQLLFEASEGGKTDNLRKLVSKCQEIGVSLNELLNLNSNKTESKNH
UniProt A4UGR9: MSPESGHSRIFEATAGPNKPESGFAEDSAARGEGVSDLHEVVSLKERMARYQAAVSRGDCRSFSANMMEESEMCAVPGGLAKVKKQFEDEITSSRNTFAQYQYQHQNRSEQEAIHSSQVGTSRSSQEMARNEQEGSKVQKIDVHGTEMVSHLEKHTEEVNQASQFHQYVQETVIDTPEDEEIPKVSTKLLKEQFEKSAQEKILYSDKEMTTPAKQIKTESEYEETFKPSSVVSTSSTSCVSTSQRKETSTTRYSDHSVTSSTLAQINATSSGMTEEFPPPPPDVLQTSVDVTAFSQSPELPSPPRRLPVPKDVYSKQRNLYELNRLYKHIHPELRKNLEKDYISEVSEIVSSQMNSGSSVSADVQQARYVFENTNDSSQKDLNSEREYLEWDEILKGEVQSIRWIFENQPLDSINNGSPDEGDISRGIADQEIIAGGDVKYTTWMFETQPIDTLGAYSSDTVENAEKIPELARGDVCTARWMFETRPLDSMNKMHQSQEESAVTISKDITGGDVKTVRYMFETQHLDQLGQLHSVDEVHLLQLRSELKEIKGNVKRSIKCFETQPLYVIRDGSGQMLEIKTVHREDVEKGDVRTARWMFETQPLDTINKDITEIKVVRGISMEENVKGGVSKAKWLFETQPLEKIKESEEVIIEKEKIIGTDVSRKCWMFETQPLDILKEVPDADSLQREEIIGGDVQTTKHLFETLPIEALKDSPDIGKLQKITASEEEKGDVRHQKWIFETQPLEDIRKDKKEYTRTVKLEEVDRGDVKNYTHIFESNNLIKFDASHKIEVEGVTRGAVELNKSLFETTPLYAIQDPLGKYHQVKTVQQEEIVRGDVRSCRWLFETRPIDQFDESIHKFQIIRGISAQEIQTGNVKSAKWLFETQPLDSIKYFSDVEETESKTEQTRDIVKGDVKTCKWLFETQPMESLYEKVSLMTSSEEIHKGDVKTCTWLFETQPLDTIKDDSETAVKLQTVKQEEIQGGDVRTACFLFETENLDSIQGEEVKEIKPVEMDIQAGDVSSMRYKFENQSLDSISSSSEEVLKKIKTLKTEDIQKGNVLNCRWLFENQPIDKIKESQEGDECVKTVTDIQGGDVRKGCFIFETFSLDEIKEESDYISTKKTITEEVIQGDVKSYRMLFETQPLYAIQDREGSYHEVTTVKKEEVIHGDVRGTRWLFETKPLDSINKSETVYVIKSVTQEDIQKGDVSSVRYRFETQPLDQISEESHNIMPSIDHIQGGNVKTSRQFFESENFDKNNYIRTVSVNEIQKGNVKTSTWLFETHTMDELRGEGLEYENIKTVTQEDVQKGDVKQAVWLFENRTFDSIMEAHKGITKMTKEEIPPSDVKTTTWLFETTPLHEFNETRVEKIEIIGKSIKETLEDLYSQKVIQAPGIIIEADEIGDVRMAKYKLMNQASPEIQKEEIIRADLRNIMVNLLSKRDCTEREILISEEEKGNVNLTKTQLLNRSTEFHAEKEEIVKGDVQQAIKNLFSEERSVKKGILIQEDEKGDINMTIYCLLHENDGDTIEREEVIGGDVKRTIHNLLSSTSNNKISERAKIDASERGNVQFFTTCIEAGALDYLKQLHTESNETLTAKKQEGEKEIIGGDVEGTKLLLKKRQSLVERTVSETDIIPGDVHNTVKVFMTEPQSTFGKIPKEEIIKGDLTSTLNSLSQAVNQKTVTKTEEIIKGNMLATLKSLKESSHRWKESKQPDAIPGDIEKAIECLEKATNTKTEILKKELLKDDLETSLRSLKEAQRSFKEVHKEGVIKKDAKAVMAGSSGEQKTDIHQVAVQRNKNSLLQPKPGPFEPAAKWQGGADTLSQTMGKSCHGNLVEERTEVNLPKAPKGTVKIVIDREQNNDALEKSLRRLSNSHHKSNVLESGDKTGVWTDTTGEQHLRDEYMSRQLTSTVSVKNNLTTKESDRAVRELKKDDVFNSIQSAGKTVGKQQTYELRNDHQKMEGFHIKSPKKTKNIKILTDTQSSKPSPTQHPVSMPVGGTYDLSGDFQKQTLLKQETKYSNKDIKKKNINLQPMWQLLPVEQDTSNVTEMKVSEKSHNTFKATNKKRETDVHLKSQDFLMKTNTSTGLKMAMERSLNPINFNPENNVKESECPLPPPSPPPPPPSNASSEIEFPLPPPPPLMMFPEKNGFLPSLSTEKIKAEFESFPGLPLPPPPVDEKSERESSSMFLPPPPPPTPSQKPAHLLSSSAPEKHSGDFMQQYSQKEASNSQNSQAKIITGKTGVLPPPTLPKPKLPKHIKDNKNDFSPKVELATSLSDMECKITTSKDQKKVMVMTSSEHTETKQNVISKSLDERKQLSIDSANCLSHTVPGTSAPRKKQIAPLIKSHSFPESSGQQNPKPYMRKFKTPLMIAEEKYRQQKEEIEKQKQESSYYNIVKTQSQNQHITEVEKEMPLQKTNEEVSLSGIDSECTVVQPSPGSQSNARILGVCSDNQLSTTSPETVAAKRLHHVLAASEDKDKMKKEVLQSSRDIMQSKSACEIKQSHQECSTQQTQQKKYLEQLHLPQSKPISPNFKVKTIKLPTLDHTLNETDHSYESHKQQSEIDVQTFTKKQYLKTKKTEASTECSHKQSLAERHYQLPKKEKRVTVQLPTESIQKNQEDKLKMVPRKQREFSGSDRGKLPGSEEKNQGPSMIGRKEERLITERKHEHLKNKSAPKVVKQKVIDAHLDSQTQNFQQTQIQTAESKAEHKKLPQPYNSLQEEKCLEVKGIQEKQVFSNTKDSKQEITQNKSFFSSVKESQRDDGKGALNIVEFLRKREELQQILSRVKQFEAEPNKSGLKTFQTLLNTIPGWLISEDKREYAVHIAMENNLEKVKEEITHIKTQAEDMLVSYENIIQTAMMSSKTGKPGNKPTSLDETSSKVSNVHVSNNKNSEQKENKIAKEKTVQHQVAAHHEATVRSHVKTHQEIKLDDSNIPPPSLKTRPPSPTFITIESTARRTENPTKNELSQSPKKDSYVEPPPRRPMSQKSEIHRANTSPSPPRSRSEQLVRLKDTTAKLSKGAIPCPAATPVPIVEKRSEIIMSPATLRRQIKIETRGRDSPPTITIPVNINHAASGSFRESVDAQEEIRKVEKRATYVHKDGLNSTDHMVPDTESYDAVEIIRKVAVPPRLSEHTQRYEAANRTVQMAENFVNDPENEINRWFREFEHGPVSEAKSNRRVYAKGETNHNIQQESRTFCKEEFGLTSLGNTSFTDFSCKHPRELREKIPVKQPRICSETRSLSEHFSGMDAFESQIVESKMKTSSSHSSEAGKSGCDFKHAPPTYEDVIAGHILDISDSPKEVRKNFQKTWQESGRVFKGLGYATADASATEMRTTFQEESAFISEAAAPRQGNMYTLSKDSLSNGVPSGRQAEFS
UniProt Q96DA0: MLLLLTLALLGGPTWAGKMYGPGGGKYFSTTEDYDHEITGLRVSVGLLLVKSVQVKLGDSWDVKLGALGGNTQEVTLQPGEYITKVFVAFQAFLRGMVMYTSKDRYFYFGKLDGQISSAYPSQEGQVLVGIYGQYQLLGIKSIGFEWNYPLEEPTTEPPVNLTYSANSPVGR

What follows are targets tested with C1COCCN1CCN2C3=CC=CC=C3N=C2NC(=O)C4=CC(=CC=C4)[N+](=O)[O-] [IRAK-1-4 Inhibitor I] (assay: log2 fold change, soluble protein after heating vs DMSO (PISA); higher = thermal stabilisation; K562 cells, 10 uM, 30 min; active = over 0.2 and 3.5 SD of the protein, either way, in both replicates (recomputed)).
Method in brief: (§1)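 Quantification of soluble protein used TMTpro 16plex LC-MS/MS, with channel sums equalised. Samples were the supernatant after 21,000xg for 90 min of pooled aliquots from K562 cells (2×10^6 cells/mL) treated with 10 μM compound for 30 min, heated for 3 min over 48°C-58°C, and extracted in PBS with 0.5% NP-40 at 4°C. Values, from duplicates, describe thermal stability against control samples on a log2 fold-change scale.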

log2 fold change, inactive:
ZFHX4 isoform 5 (UniProt Q86UP3) -0.193
ZNF22 (UniProt P17026) -0.382
XYLT2 (UniProt Q9H1B5) -0.038
ZC3H7B (UniProt Q9UGR2) 0.061

These targets were tested with C=CC(=O)N1CCC[C@@H](n2nc(-c3ccc(Oc4ccccc4)cc3)c3c(N)ncnc32)C1 [ibrutinib] in the same assay as above.
Method in brief: as §1

log2 fold change, inactive:
ZNF225 (UniProt Q9UK10) 0.121
ZBTB10 (UniProt Q96DT7) 0.01
ZBTB17 isoform 2 (UniProt Q13105) -0.05
YIPF1 (UniProt Q9Y548) 0.135
ZFPM1 (UniProt Q8IX07) -0.437
ZFAND3 (UniProt Q9H8U3) -0.037
ZNF106 (UniProt Q9H2Y7) -0.013
ZNF207 isoform 2 (UniProt O43670) -0.037
XP32 (UniProt Q5T750) 0.099
ZFC3H1 (UniProt O60293) 0.073
ZBTB14 (UniProt O43829) 0.017
XIRP2 isoform 8 (UniProt A4UGR9) 0.018
YIPF2 (UniProt Q9BWQ6) 0
ZC3H11A (UniProt O75152) 0.048
ZG16B (UniProt Q96DA0) 0.113
ZBED1 (UniProt O96006) 0.119

Pulled one by one from above:
log2 fold change, inactive:
YIPF1 (UniProt Q9Y548) 0.135
ZC3H11A (UniProt O75152) 0.048
